The list shows only some results of the screen, not a fair sample: it gathers tests that were run many times, whatever their T/C, doses with no T/C, and many T/C values between a quarter and a half above the control. Other doses and runs of a compound stand elsewhere. T/C gives the treated animals as a percentage of the vehicle group. Some entries give survivors of the animals treated and no T/C: the source files T/C as zero there, which appears to mark a toxic dose or a test without result, not a measured value. Some doses without a T/C left all or most animals alive at the check, yet need not have been tolerated: the source hardly ever lists a survival T/C far under the control, and the zero likely stands for such cases as well. Survivors were counted at the toxicity check, usually on the fifth day, unless a day is given; later deaths do not show. Schedule codes are those of the source, taken here to give the interval after Q, in days (D) or hours (H), and the number of doses after X. Some entries hold several experiments; the results are listed from low to high. For survival time, this PubChem deposit counts one and a half times the control or more as active, and values a quarter to a half above the control carry no call in these data; other NCI protocols may use other cut-offs. Signs of the kind (2×) stand for listed records that agree. Some T/C values are followed by the survivors on the day toxicity was checked, most often the fifth; where none is given, no animal had died by that day.
Test system: CD2F1 mice, L1210 leukemia ip, survival T/C
Test: NCI In Vivo Anticancer Drug Screen. Data for tumor model L1210 Leukemia (intraperitoneal) in CD2F1 (CDF1) mice
Details: higher T/C = longer survival
Outline: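 Mice carrying a transplanted tumor received test compound or vehicle alone. The value is the measurement in the treated group divided by that in the vehicle-treated control group.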

[1] = T/C endpoint: mean survival time, dose: 300.0 mg/kg/injection, schedule: Q01DX001 (ip), vehicle: saline
[2] = T/C endpoint: mean survival time, dose: 400.0 mg/kg/injection, schedule: Q04DX003 (ip), vehicle: saline with Tween-80
[3] = T/C endpoint: mean survival time, dose: 200.0 mg/kg/injection, schedule: Q01DX001 (ip), vehicle: saline
[4] = T/C endpoint: mean survival time, dose: 400.0 mg/kg/injection, schedule: Q01DX001 (ip), vehicle: saline
[5] = T/C endpoint: mean survival time, dose: 100.0 mg/kg/injection, schedule: Q04DX002 (ip), vehicle: saline with Tween-80
[6] = T/C endpoint: mean survival time, dose: 200.0 mg/kg/injection, schedule: Q04DX002 (ip), vehicle: saline with Tween-80
[7] = T/C endpoint: mean survival time, dose: 400.0 mg/kg/injection, schedule: Q04DX002 (ip), vehicle: saline with Tween-80
[8] = T/C endpoint: mean survival time, dose: 200.0 mg/kg/injection, schedule: Q01DX009 (ip), vehicle: saline
[9] = T/C endpoint: mean survival time, dose: 200.0 mg/kg/injection, schedule: Q04DX003 (ip), vehicle: saline with Tween-80

SMILES: NC(Cc1cc([N+](=O)[O-])ccc1CN(CCCl)CCCl)C(=O)O (stereo unspecified)
- T/C (T/C endpoint: mean survival time, dose: 1.0 mg/kg/injection, schedule: Q01DX009 (ip), vehicle: Klucel (hydroxypropylcellulose) (HPC)): 133 % of control [5 of 6 alive]
- T/C (T/C endpoint: mean survival time, dose: 2.0 mg/kg/injection, schedule: Q01DX009 (ip), vehicle: Klucel (hydroxypropylcellulose) (HPC)): 139 % of control
- T/C (T/C endpoint: median survival time, dose: 3.12 mg/kg/injection, schedule: Q01DX001 (ip), vehicle: Klucel (hydroxypropylcellulose) (HPC)): 146 % of control
- survivor count (T/C endpoint: median survival time, dose: 3.75 mg/kg/injection, schedule: Q04DX003 (ip), vehicle: Klucel (hydroxypropylcellulose) (HPC)): 4 of 6
- survivor count (T/C endpoint: median survival time, dose: 6.25 mg/kg/injection, schedule: Q01DX001 (ip), vehicle: Klucel (hydroxypropylcellulose) (HPC)): 4 of 6
- survivor count (T/C endpoint: median survival time, dose: 7.5 mg/kg/injection, schedule: Q04DX003 (ip), vehicle: Klucel (hydroxypropylcellulose) (HPC)): 4 of 6
- survivor count (T/C endpoint: median survival time, dose: 12.5 mg/kg/injection, schedule: Q01DX001 (ip), vehicle: Klucel (hydroxypropylcellulose) (HPC)): 2 of 6
- survivor count (T/C endpoint: median survival time, dose: 15.0 mg/kg/injection, schedule: Q04DX003 (ip), vehicle: Klucel (hydroxypropylcellulose) (HPC)): 1 of 6
- survivor count (T/C endpoint: median survival time, dose: 25.0 mg/kg/injection, schedule: Q01DX001 (ip), vehicle: Klucel (hydroxypropylcellulose) (HPC)): 1 of 6

SMILES: CC(C)CC(C)NCCO (stereo unspecified)
- survivor count [1]: 0 of 6

SMILES: O=C(C[n+]1cc2ccccc2cc1/C=N/O)c1ccccc1
- survivor count [2]: 2 of 6

SMILES: Cc1ccnc(NC2=CC(=O)C(=O)c3ccccc32)c1
- survivor count (T/C endpoint: mean survival time, dose: 400.0 mg/kg/injection, schedule: Q01DX009 (ip), vehicle: saline sonified): 3 of 6

SMILES: CC(=O)OCC1OC(N2CN=C(N)NC2=O)C(OC(C)=O)C1OC(C)=O (stereo unspecified)
- T/C (T/C endpoint: mean survival time, dose: 3.12 mg/kg/injection, schedule: Q01DX009 (ip), vehicle: saline): 127 % of control
- T/C (T/C endpoint: mean survival time, dose: 6.25 mg/kg/injection, schedule: Q01DX009 (ip), vehicle: saline): 125 % of control
- T/C (T/C endpoint: mean survival time, dose: 25.0 mg/kg/injection, schedule: Q01DX009 (ip), vehicle: saline): 131 and 145 % of control

SMILES: CN(C)C=Nc1ccc(C#N)cc1
- survivor count [3]: 0 of 4
- survivor count [4]: 0 of 4

SMILES: CN(C)c1ccc2c(N(C)C)cc(N(C)C)nc2c1
- survivor count (T/C endpoint: mean survival time, dose: 50.0 mg/kg/injection, schedule: Q01DX009 (ip), vehicle: Klucel (hydroxypropylcellulose) (HPC)): 0 of 6
- survivor count (T/C endpoint: mean survival time, dose: 100.0 mg/kg/injection, schedule: Q01DX009 (ip), vehicle: Klucel (hydroxypropylcellulose) (HPC)): 0 of 6
- survivor count (T/C endpoint: mean survival time, dose: 200.0 mg/kg/injection, schedule: Q01DX009 (ip), vehicle: Klucel (hydroxypropylcellulose) (HPC)): 0 of 6

SMILES: N#CC(c1cccnc1)N1CCOCC1 (stereo unspecified)
- survivor count (T/C endpoint: mean survival time, dose: 100.0 mg/kg/injection, schedule: Q01DX009 (ip), vehicle: saline with Tween-80): 1 of 3
- survivor count [5]: 3 of 3
- survivor count [6]: 0 of 3
- survivor count [7]: 0 of 3

SMILES: COC12C(COC(N)=O)C3=C(C(=O)C(C)=C(N4CC4)C3=O)N1CC1NC12 (stereo unspecified)
- T/C (T/C endpoint: mean survival time, dose: 0.22 mg/kg/injection, schedule: Q01DX007 (ip), vehicle: acetone): 141 % of control
- T/C (T/C endpoint: mean survival time, dose: 0.33 mg/kg/injection, schedule: Q01DX007 (ip), vehicle: acetone): 146 % of control
- survivor count (T/C endpoint: mean survival time, dose: 0.5 mg/kg/injection, schedule: Q01DX001 (ip), vehicle: acetone): 4 of 4
- survivor count (T/C endpoint: mean survival time, dose: 0.66 mg/kg/injection, schedule: Q01DX001 (ip), vehicle: acetone): 0 of 4
- T/C (T/C endpoint: mean survival time, dose: 0.66 mg/kg/injection, schedule: Q01DX001 (ip), vehicle: carboxymethylcellulose (CMC)): 148 % of control
- survivor count (T/C endpoint: mean survival time, dose: 1.0 mg/kg/injection, schedule: Q01DX001 (ip), vehicle: acetone): 2 of 4
- survivor count (T/C endpoint: mean survival time, dose: 1.5 mg/kg/injection, schedule: Q01DX001 (ip), vehicle: acetone): 0 of 4

SMILES: NCCNCCNCCNCCN (tested in a mixture with another compound)
- survivor count [8]: 2 of 6
- survivor count [2]: 0 of 6

SMILES: COC(=O)C1C(=O)CC2N(C)C1C(C)(C)C2(C)C (stereo unspecified)
- survivor count [7]: 0 of 3

SMILES: CN(C)CCc1ccc(O)cc1
- survivor count [3]: 2 of 6
- survivor count [4]: 0 of 6

SMILES: CO/N=C(/c1ccccc1)c1cc[n+](C)cc1
- survivor count (T/C endpoint: mean survival time, dose: 150.0 mg/kg/injection, schedule: Q04DX003 (ip), vehicle: saline): 4 of 6
- survivor count [1]: 1 of 6

SMILES: CO[C@H]1[C@H](O)[C@H](O[C@H]2CC[C@@]3(C)[C@H](CC[C@@H]4[C@@H]3CC[C@]3(C)[C@@H](C5=CC(=O)OC5)CC[C@]43O)C2)O[C@@H](C)[C@@H]1O
- survivor count (T/C endpoint: mean survival time, dose: 8.0 mg/kg/injection, schedule: Q01DX001 (ip), vehicle: saline): 3 of 6
- survivor count (T/C endpoint: mean survival time, dose: 75.0 mg/kg/injection, schedule: Q01DX001 (ip), vehicle: saline): 0 of 6
- survivor count (T/C endpoint: mean survival time, dose: 150.0 mg/kg/injection, schedule: Q01DX001 (ip), vehicle: saline): 0 of 6
- survivor count [1]: 0 of 6

SMILES: O=P1(N2CC2)OCCCN1CCCl (stereo unspecified)
- survivor count (T/C endpoint: mean survival time, dose: 60.0 mg/kg/injection, schedule: Q01DX001 (ip), vehicle: distilled water + Tween-80): 0 of 6
- survivor count (T/C endpoint: mean survival time, dose: 125.0 mg/kg/injection, schedule: Q01DX001 (ip), vehicle: saline with Tween-80): 2 of 6
- survivor count (T/C endpoint: mean survival time, dose: 250.0 mg/kg/injection, schedule: Q01DX001 (ip), vehicle: saline with Tween-80): 0 of 6
- survivor count (T/C endpoint: mean survival time, dose: 500.0 mg/kg/injection, schedule: Q01DX001 (ip), vehicle: saline with Tween-80): 0 of 6

SMILES: CCCCCCCCCCCCCCCCCCN1C(=O)C2C3CCC(O3)C2C1=O (stereo unspecified)
- survivor count [5]: 3 of 3
- survivor count [6]: 3 of 3
- survivor count [7]: 0 of 3

SMILES: COc1cc2c(cc1OC)C1CCN3C(=O)CCC3[N+]1(C)CC2 (stereo unspecified)
- survivor count [8]: 6 of 6
- survivor count (T/C endpoint: mean survival time, dose: 400.0 mg/kg/injection, schedule: Q04DX003 (ip), vehicle: saline): 3 of 6

SMILES: OCC1OC(n2ccc3c2ncn2ncnc32)C(O)C1O (stereo unspecified)
- T/C (T/C endpoint: mean survival time, dose: 12.5 mg/kg/injection, schedule: Q01DX005 (ip), vehicle: water): 127 % of control
- T/C (T/C endpoint: mean survival time, dose: 25.0 mg/kg/injection, schedule: Q01DX005 (ip), vehicle: water): 133 and 141 % of control
- survivor count (T/C endpoint: mean survival time, dose: 50.0 mg/kg/injection, schedule: Q01DX005 (ip), vehicle: water): 4 of 4
- survivor count (T/C endpoint: mean survival time, dose: 100.0 mg/kg/injection, schedule: Q01DX005 (ip), vehicle: water): 0 of 4 and 0 of 6
- survivor count (T/C endpoint: mean survival time, dose: 200.0 mg/kg/injection, schedule: Q01DX005 (ip), vehicle: water): 0 of 4
- survivor count (T/C endpoint: mean survival time, dose: 400.0 mg/kg/injection, schedule: Q01DX005 (ip), vehicle: water): 0 of 4

SMILES: COc1ccc2c(c1O)-c1c(OC)c(OC)cc3c1C(C2)N(C)CC3 (stereo unspecified)
- survivor count (T/C endpoint: mean survival time, dose: 100.0 mg/kg/injection, schedule: Q01DX009 (ip), vehicle: saline): 2 of 6
- survivor count [8]: 1 of 6
- survivor count (T/C endpoint: mean survival time, dose: 400.0 mg/kg/injection, schedule: Q01DX009 (ip), vehicle: saline): 0 of 6

SMILES: CC1CCC2CCCCC2[N-]1.CC1CCC2CCCCC2[N-]1.[Cl][Pt+2][Cl] (stereo unspecified)
- survivor count [9]: 4 of 4

SMILES: Nn1cnnc1
- survivor count [4]: 1 of 6

SMILES: CCCCNC(=S)N/N=C/c1ccccn1
- survivor count [7]: 0 of 3

SMILES: CC([NH-])CC(C)[NH-].[Cl][Pt+2][Cl] (stereo unspecified)
- T/C (T/C endpoint: mean survival time, dose: 3.12 mg/kg/injection, schedule: Q04DX003 (ip), vehicle: saline with Tween-80): 144 % of control
- T/C (T/C endpoint: mean survival time, dose: 6.25 mg/kg/injection, schedule: Q04DX003 (ip), vehicle: saline with Tween-80): 148 % of control
- T/C (T/C endpoint: mean survival time, dose: 12.5 mg/kg/injection, schedule: Q04DX003 (ip), vehicle: saline with Tween-80): 128 % of control

SMILES: CCCCCCNC(=O)Oc1c(C/C=C/CCC(=O)O)c(OC)c(C)c2c1C(=O)OC2
- T/C [7]: 128 % of control (2×)

SMILES: CC(C)OC(=O)Oc1cccs1
- survivor count (T/C endpoint: mean survival time, dose: 100.0 mg/kg/injection, schedule: Q04DX003 (ip), vehicle: saline with Tween-80): 6 of 6
- survivor count [9]: 0 of 6
- survivor count [2]: 0 of 6

SMILES: CCC(C)CC(N)O (stereo unspecified)
- survivor count [1]: 3 of 6

— PubChem BioAssay AID256 (DTP/NCI, 2004)
